From publication PMC9640553 come the findings set out here.

The experiment concerns the target ΔIMS-ATAD3-HA. In words: co-IP; steady state; 500 µg total protein extract in IP buffer (HEPES KOH pH 7.2, 150 mM NaCl, 1 mM MgCl2, 1% Triton), anti-V5, anti-VPS35 or anti-HA overnight at 4 °C, Protein-G agarose, western blot. Background: Immunoblotting shows a protein as a band on a membrane.

These are yes or no findings as the source states them, for the method shown. In cells and extracts the contact can be indirect. Binding can be weak; no strength is given.

B1: SAMM50 (protein, UniProt Q8BGH2 1-469)
chain: MGTVHARSLEPLPSSGTDFGALGEEAEFVEVEPEAKQEILENKDVVVQHVHFDGLGRTKDDIIICEIGEVFKAKNLIEVMRRSHEAREKLLRLGIFRQVDVLIDTCHGEDALPNGLDVTFEVTELRRLTGSYNTMVGNNEGSMVLGLKLPNLLGRAEKVTFQFSYGTKETSYGLSFFKPQPGNFERNFSVNLYKVTGQFPWSSLRETDRGVSAEYSFPLWKTSHTVKWEGVWRELGCLSRTASFAVRKESGHSLKSSLSHAMVIDSRNSSILPRRGALFKVNQELAGYTGGDVSFIKEDFELQLNKPLALDSVFSTSLWGGMLVPIGDKPSSIADRFYLGGPTSVRGFSMHSIGPQSEGDYLGGEAYWAGGLHLYTPLPFRPGQGGFGELFRTHFFLNAGNLCNLNYGEGPKAHIRKLAECIRWSYGAGVVLRLGNIARLELNYCIPMGVQGGDRICDGVQFGAGIRFL
B1: the binding result is on record as “binds”.
